Results are given in words; binding and its absence hold for the method and conditions named. In cells and extracts the contact can be indirect. These calls come from enrichment with a bait or labelling near it, and not all partners need be listed.

Sequences of proteins named here, by UniProt entry; tags and fusion partners are left off.
UniProt Q13263: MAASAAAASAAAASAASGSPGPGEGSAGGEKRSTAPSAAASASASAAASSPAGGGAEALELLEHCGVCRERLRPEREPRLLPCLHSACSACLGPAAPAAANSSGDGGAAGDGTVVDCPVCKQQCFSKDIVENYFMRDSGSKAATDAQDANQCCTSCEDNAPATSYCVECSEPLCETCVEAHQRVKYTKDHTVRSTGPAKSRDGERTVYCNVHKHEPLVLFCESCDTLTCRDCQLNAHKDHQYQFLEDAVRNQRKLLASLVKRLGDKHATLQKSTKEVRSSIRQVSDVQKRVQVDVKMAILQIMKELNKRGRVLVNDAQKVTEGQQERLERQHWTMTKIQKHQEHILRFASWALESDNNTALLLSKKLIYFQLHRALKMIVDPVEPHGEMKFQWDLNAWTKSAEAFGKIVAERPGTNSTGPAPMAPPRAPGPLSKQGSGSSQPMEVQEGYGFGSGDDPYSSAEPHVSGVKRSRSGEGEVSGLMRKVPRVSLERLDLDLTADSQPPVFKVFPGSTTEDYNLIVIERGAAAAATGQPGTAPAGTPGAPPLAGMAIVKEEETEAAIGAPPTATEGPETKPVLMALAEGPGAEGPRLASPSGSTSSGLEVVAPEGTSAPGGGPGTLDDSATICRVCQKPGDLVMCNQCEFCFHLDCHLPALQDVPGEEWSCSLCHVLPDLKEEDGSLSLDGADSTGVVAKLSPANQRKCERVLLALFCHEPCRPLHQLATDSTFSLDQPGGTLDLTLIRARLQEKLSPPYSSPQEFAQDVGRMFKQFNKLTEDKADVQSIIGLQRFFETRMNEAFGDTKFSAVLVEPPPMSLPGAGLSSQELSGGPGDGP

In PMC9647857 one finds binding data, which are given here for 2 molecules.

The target in the assay is T1, CSDE1 (human (endogenous in HepG2 and SK-HEP-1)) (UniProt O75534).
T1 sequence: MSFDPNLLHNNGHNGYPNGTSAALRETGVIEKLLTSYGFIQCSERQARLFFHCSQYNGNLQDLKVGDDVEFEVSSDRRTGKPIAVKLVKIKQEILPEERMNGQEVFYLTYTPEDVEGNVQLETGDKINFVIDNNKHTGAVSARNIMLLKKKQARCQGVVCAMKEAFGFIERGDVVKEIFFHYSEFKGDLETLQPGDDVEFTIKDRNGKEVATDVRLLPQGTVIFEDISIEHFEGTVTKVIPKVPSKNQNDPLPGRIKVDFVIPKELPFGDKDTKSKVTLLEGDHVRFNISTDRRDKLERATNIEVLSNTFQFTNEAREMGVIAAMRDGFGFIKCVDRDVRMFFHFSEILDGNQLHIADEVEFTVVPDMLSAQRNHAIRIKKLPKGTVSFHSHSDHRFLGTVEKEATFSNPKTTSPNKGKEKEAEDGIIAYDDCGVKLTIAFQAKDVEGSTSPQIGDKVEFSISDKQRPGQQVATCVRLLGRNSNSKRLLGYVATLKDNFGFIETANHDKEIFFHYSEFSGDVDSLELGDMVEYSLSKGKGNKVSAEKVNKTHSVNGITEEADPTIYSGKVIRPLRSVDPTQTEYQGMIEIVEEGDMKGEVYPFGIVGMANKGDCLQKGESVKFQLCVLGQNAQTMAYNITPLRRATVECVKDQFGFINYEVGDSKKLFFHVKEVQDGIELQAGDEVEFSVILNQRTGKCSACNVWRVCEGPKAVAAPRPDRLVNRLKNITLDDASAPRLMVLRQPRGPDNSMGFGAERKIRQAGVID
Description: affinity purification with mass spectrometry; IP-MS: HepG2 lysate precipitated with the CSDE1 antibody at 4°C overnight, Dynabeads Protein G, washed with NP-40 lysis buffer, LC-MS/MS.

With TRIM28 (from UniProt Q13263 1-835), the binding result is “binds”.

B1: HERC5 (protein, UniProt Q9UII4 1-1024)
chain: MERRSRRKSRRNGRSTAGKAAATQPAKSPGAQLWLFPSAAGLHRALLRRVEVTRQLCCSPGRLAVLERGGAGVQVHQLLAGSGGARTPKCIKLGKNMKIHSVDQGAEHMLILSSDGKPFEYDNYSMKHLRFESILQEKKIIQITCGDYHSLALSKGGELFAWGQNLHGQLGVGRKFPSTTTPQIVEHLAGVPLAQISAGEAHSMALSMSGNIYSWGKNECGQLGLGHTESKDDPSLIEGLDNQKVEFVACGGSHSALLTQDGLLFTFGAGKHGQLGHNSTQNELRPCLVAELVGYRVTQIACGRWHTLAYVSDLGKVFSFGSGKDGQLGNGGTRDQLMPLPVKVSSSEELKLESHTSEKELIMIAGGNQSILLWIKKENSYVNLKRTIPTLNEGTVKRWIADVETKRWQSTKREIQEIFSSPACLTGSFLRKRRTTEMMPVYLDLNKARNIFKELTQKDWITNMITTCLKDNLLKRLPFHSPPQEALEIFFLLPECPMMHISNNWESLVVPFAKVVCKMSDQSSLVLEEYWATLQESTFSKLVQMFKTAVICQLDYWDESAEENGNVQALLEMLKKLHRVNQVKCQLPESIFQVDELLHRLNFFVEVCRRYLWKMTVDASENVQCCVIFSHFPFIFNNLSKIKLLHTDTLLKIESKKHKAYLRSAAIEEERESEFALRPTFDLTVRRNHLIEDVLNQLSQFENEDLRKELWVSFSGEIGYDLGGVKKEFFYCLFAEMIQPEYGMFMYPEGASCMWFPVKPKFEKKRYFFFGVLCGLSLFNCNVANLPFPLALFKKLLDQMPSLEDLKELSPDLGKNLQTLLDDEGDNFEEVFYIHFNVHWDRNDTNLIPNGSSITVNQTNKRDYVSKYINYIFNDSVKAVYEEFRRGFYKMCDEDIIKLFHPEELKDVIVGNTDYDWKTFEKNARYEPGYNSSHPTIVMFWKAFHKLTLEEKKKFLVFLTGTDRLQMKDLNNMKITFCCPESWNERDPIRALTCFSVLFLPKYSTMETVEEALQEAINNNRGFG
B1: the binding result is “binds”.
